Assay [1] deals with MILI (PIWIL2) piRISC loaded with L1MC piRNA (26 nt). As to the kind of experiment: pre-steady-state target cleavage rate (min^-1); higher = faster piRNA-guided slicing of the target. Particulars: guide: L1MC piRNA 5'p-UAACUAAAUACUAUGCAAGCUGUAGG
The essentials: (§1)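 A transcribed, DNA-blocked target RNA library (0.1 nM) and 1 nM active affinity-purified piRISC bearing one synthetic guide were incubated in HEPES–potassium acetate buffer at 33 °C for 0–8 or 0–960 min, either with or without 500 nM GTSF1 partner protein. Uncleaved targets were sequenced, normalised to depth and to weakly complementary targets, and pooled over three trials, with k3 capped at 0.0001 min^-1. The pre-steady-state cleavage rate was derived with a burst-and-steady-state fit.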

Assay [2] relates to MIWI (PIWIL1) piRISC loaded with L1MC piRNA (30 nt). The description is as above. To be noted: guide: L1MC piRNA 5'p-UAACUAAAUACUAUGCAAGCUGUAGGUCCU; auxiliary factor: none (no GTSF1). The essentials: as §1
Assay [3] concerns EfPiwi piRISC loaded with L1MC piRNA (26 nt). As to the kind of experiment: pre-steady-state target cleavage rate (min^-1); guide: L1MC piRNA 5'p-UAACUAAAUACUAUGCAAGCUGUAGG; MIWI and MILI are mouse PIWI proteins and EfPiwi is from a freshwater sponge; tags in brackets are library labels; higher = faster piRNA-guided slicing of the target. Summed up: as §1
Setting [4] is: auxiliary factor: 500 nM mouse GTSF1.
The mark [5] stands for this setting: auxiliary factor: none (no GTSF1).
Where [6] appears, read: auxiliary factor: 500 nM Ephydatia muelleri Gtsf1.
[7] abbreviates: auxiliary factor: none (no Gtsf1).

± gives the standard deviation. The entries are a selection whose mix differs from that of the whole data set. Many entries were measured with a wide error. The list shows a part of the results.

Turning to UCCUCCUACACGUUGCAUAGUAUUUAGAAA, the “pre-steady-state target cleavage rate” value in assay [1] (setting [4]) stood at 0.161 ± 0.029; in assay [1] (setting [5]), 0.00164 ± 0.0044; in assay [2], 0.0018 ± 0.0044; in assay [3] (setting [6]), 0.00396 ± 0.003; in assay [3] (setting [7]) it was 0.000409 ± 0.014.
Taken in the same sequence, the figures for UCCUGGAUCAGCUUGCAUAGAAAUUAGUUA were 0.0245 ± 0.0096, 0.00186 ± 0.0035, 0.0026 ± 0.0029, 0.000977 ± 0.0042 and 0.000365 ± 0.016.
In the same order, the values of UCCUGGAACUCGUUGCAUAGUAUUUACAAA are 0.0537 ± 0.013, 0.00124 ± 0.0043, 0.00225 ± 0.0032, 0.000259 ± 0.013 and 0.000222 ± 0.028.
Taken in the same sequence, the figures for UCCUGGAUGUCGUUGCAUAGUAUUUACGUUA were 0.231 ± 0.064, 0.00342 ± 0.0036, 0.00271 ± 0.0047, 0.00161 ± 0.0061 and 0.000658 ± 0.015.
As for UCCUCCUACAGCUUGCAUAGAUUUUAGAAA, the “pre-steady-state target cleavage rate” value came out at 0.0147 ± 0.0053 in assay [1] (setting [4]); 0.000962 ± 0.0045 in assay [1] (setting [5]); 0.000378 ± 0.0074 in assay [2]; 0.00312 ± 0.0024 in assay [3] (setting [6]); 0.00037 ± 0.0099 in assay [3] (setting [7]).
Consider UCCUGGAACAGCUUGCAUAGUAUUUUCAAA, for which the “pre-steady-state target cleavage rate” value in assay [1] (setting [4]) worked out at 0.0774 ± 0.018; in assay [1] (setting [5]), 0.000954 ± 0.005; in assay [2], 0.00203 ± 0.0035; in assay [3] (setting [6]) it was 0.00233 ± 0.0023; in assay [3] (setting [7]) it was 0.000301 ± 0.019.
In the same order, the values of UCCUGCUACAGCUUGCAAUGUAUUUACAAA are 0.0477 ± 0.014, 0.00108 ± 0.0057, 0.000989 ± 0.0076, 0.000187 ± 0.021 and 0.000164 ± 0.015.
As to UCCUGGAUCAGCUUGCAUAGUAUAUUCAAA, the “pre-steady-state target cleavage rate” value in assay [1] (setting [4]) is 0.0428 ± 0.01; in assay [1] (setting [5]), 0.000926 ± 0.0056; in assay [2], 0.00124 ± 0.0042; in assay [3] (setting [6]), 0.00286 ± 0.0039; in assay [3] (setting [7]), 0.000172 ± 0.056.
On to UCCUGGAUGUGCUUGCAUAGAUAUUAGAAA, for which the “pre-steady-state target cleavage rate” value in assay [1] (setting [4]) stood at 0.000408 ± 0.018; in assay [1] (setting [5]), 0.000305 ± 0.015; in assay [2], 0.000237 ± 0.014; in assay [3] (setting [6]), 0.00029 ± 0.016; in assay [3] (setting [7]), 0.000366 ± 0.018.
As to UCCUGGAUGUCGUAUGCAUAGUAUUUAGUUA, the “pre-steady-state target cleavage rate” value in assay [1] (setting [4]) was found to be 0.0833 ± 0.012; in assay [1] (setting [5]), 0.00487 ± 0.0028; in assay [2], 0.00121 ± 0.008; in assay [3] (setting [6]), 0.00476 ± 0.0027; in assay [3] (setting [7]) it was 0.000789 ± 0.0096.
Take UCCUCCUACAGCUUGCUAAGUAUUUUCAAA: the “pre-steady-state target cleavage rate” value in assay [1] (setting [4]) amounted to 0.0625 ± 0.017; in assay [1] (setting [5]), 0.000848 ± 0.0047; in assay [2], 0.00027 ± 0.011; in assay [3] (setting [6]) it was 0.000916 ± 0.0073; in assay [3] (setting [7]), 0.000279 ± 0.019.
Taken in the same sequence, the figures for UCCUGCUACACGUUGCAUAGUAUUUACAAA were 0.0287 ± 0.01, 0.000896 ± 0.0075, 0.000641 ± 0.0086, 0.000612 ± 0.0074 and 0.000365 ± 0.027.
In the case of UCCUCCUACAGGAAGCAUAGUAUUUACAAA, the “pre-steady-state target cleavage rate” value is 0.0698 ± 0.014 in assay [1] (setting [4]); 0.00022 ± 0.014 in assay [1] (setting [5]); 0.000543 ± 0.011 in assay [2]; 0.001 ± 0.0063 in assay [3] (setting [6]); less than 0.0001 in assay [3] (setting [7]).

(Values after the supplement of paper PMC10338343.)
